From paper PMC12509982
These are yes or no findings as the source states them, for the method shown. Binding seen in cells or lysates may run through a third protein. Sequences can lack the tags named with a protein.

Biological target: T1, FLAG-DCLK3 (Doublecortin-like kinase 3) (human) (UniProt Q9C098)
T1 sequence: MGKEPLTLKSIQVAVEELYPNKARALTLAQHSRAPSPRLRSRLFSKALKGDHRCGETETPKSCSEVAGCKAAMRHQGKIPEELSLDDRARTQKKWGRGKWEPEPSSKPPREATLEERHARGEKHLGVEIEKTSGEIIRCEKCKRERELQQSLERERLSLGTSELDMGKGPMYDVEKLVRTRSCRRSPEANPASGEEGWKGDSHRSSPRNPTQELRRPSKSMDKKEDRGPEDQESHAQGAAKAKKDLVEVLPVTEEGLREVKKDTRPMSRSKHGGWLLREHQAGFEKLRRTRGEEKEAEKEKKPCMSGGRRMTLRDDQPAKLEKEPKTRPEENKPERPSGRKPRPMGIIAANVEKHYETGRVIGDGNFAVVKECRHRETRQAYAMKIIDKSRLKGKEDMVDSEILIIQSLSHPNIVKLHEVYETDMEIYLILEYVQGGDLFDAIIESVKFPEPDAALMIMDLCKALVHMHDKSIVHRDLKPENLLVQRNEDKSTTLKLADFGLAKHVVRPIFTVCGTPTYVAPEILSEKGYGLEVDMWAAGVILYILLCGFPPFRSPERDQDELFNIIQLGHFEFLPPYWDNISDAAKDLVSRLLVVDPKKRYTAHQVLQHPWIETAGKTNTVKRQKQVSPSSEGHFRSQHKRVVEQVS
Assay: co-IP; HEK293T co-transfected with FLAG-DCLK3 and GFP-Tau; lysed in RIPA buffer after 48 h; anti-FLAG M2 magnetic or agarose beads; washed three times in RIPA buffer; blots with anti-FLAG, anti-GFP and anti-pS262 Tau

Substance: GFP-Tau, unphosphorylated
- binding: no binding
